# The shares of active, inactive and inconclusive entries below differ from those in the screen. For some assays here: Where the call is inconclusive, the potency comes from a doubtful curve fit. Active and inactive are the calls of the source. Rule for the calls: active = hit-call score of the fitted dose curve at least 0.9, where 1 is the maximum; inconclusive = response in the unintended direction; inactive = score below 0.9.
# Amino acid sequences for entries named in this document (tags omitted). A change or cut given only in a name is not applied to a line headed by its entry.
# UniProt P10586, whole entry, looked up: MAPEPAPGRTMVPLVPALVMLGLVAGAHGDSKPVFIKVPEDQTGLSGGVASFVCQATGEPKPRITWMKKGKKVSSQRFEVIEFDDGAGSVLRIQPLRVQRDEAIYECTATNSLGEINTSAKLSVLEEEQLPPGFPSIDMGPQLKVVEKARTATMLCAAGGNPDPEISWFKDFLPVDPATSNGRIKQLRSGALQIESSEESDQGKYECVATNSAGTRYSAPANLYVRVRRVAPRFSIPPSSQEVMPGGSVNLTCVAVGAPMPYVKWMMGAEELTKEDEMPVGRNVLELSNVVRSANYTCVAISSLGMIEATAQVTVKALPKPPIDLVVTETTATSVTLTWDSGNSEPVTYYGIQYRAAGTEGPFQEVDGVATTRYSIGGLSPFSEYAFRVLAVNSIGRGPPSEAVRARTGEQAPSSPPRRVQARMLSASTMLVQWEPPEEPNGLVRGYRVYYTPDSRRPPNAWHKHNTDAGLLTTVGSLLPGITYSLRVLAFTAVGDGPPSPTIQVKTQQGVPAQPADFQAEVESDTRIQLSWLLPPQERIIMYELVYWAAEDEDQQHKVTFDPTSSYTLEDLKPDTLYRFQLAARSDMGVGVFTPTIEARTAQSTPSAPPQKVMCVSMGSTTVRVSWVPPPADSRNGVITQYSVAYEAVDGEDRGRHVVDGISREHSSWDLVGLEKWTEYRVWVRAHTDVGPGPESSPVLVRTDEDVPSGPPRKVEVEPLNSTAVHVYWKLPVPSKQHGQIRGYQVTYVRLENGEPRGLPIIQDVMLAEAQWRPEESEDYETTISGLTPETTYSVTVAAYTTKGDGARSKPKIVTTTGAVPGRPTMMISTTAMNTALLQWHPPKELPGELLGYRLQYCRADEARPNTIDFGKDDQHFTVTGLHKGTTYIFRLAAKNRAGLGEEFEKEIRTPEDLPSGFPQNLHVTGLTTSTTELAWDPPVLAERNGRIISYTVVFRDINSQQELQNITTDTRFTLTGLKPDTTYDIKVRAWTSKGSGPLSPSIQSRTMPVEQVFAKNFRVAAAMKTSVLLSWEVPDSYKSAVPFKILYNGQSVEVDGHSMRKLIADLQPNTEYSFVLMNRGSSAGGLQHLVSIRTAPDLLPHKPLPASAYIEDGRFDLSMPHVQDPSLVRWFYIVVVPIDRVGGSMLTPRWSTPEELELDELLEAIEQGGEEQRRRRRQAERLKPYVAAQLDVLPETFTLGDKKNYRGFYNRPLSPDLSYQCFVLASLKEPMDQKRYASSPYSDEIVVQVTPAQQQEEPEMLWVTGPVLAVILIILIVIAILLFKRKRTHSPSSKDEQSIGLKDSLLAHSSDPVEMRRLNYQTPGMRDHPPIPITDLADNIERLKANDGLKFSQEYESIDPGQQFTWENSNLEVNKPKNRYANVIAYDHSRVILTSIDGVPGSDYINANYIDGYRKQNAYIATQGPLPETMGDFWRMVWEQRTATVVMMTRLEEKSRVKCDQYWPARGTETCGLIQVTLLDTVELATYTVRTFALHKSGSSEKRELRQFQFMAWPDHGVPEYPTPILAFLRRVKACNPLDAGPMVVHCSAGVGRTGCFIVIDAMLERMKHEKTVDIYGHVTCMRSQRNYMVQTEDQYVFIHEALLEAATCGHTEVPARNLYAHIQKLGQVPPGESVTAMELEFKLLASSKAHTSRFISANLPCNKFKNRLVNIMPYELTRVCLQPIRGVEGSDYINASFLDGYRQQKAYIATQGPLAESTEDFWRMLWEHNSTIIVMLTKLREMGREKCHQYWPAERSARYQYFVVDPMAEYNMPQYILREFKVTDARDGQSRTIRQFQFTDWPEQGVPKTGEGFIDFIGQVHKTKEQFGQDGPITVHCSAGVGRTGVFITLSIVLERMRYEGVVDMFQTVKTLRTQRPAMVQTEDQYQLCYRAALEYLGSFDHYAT
# UniProt P04629: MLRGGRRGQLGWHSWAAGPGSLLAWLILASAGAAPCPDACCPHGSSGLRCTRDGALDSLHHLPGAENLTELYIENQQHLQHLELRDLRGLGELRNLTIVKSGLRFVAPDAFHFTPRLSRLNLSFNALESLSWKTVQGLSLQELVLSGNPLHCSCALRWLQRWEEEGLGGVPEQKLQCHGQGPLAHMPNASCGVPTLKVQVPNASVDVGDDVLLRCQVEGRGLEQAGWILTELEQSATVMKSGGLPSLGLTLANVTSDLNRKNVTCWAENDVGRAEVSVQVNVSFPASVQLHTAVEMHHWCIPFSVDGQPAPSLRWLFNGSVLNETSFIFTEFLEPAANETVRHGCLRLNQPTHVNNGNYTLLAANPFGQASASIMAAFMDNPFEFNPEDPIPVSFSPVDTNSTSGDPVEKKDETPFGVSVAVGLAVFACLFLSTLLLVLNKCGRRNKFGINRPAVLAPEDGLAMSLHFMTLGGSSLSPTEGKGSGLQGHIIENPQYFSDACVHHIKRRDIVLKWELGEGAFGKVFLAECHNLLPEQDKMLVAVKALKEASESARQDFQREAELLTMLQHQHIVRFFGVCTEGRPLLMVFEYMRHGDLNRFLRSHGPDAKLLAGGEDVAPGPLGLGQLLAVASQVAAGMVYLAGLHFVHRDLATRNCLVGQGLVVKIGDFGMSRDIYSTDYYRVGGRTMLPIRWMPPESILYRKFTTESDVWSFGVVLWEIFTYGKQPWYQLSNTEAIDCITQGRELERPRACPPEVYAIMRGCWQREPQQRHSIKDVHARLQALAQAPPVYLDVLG
# UniProt P35916, whole entry, looked up: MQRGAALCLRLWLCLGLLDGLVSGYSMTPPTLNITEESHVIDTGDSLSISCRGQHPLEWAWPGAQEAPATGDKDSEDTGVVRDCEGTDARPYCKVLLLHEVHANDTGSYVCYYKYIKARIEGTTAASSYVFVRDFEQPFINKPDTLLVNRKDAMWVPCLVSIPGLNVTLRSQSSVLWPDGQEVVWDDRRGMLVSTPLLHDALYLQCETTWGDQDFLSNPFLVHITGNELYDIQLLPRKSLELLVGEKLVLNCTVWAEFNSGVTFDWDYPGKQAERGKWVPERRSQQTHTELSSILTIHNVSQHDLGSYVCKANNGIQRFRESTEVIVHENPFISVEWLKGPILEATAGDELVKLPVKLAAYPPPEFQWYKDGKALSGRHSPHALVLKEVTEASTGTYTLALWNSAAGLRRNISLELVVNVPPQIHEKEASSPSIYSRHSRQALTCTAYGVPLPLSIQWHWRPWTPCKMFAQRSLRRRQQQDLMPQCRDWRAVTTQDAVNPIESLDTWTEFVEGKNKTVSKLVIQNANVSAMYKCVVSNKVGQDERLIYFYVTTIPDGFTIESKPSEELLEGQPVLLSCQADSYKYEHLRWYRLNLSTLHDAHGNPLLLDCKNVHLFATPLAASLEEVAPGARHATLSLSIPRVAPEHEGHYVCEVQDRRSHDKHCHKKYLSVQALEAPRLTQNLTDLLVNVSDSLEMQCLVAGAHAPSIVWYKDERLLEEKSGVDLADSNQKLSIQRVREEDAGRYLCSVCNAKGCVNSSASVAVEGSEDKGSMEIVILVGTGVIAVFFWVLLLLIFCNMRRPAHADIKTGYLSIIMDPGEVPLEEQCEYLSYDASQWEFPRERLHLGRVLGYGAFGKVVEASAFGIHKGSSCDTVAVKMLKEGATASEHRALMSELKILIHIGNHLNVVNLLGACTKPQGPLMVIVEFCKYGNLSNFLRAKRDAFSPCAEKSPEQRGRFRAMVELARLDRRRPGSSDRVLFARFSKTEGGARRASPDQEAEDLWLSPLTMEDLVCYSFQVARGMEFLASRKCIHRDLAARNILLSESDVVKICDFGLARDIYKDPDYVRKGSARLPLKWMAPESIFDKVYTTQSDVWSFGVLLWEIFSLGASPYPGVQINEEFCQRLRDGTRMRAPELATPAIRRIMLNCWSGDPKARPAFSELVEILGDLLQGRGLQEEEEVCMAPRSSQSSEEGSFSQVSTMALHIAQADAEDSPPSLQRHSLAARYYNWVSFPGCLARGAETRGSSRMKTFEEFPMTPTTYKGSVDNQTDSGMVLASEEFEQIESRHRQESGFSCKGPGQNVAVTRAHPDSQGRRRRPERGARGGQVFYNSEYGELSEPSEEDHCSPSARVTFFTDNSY
# UniProt P29466: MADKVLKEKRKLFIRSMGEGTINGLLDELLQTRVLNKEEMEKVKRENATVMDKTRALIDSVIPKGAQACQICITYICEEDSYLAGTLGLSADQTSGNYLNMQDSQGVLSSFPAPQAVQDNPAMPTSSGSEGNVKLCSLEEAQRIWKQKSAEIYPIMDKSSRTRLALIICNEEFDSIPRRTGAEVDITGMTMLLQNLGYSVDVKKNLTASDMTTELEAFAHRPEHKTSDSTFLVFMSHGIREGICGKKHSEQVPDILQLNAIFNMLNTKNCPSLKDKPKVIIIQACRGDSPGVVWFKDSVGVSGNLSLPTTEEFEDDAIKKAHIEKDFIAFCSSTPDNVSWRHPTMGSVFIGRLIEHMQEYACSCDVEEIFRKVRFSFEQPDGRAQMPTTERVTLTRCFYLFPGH
# UniProt P14600, whole entry, looked up: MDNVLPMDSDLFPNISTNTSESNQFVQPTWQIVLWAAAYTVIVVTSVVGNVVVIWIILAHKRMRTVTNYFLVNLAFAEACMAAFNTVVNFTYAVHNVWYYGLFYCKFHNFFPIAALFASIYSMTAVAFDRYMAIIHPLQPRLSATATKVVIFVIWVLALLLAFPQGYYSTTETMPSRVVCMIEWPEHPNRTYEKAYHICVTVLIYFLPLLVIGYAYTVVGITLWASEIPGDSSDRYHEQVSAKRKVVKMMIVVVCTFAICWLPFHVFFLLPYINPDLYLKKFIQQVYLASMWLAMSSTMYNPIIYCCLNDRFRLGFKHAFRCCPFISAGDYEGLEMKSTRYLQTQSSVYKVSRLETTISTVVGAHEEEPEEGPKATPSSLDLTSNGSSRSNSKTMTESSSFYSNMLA
# UniProt P08219: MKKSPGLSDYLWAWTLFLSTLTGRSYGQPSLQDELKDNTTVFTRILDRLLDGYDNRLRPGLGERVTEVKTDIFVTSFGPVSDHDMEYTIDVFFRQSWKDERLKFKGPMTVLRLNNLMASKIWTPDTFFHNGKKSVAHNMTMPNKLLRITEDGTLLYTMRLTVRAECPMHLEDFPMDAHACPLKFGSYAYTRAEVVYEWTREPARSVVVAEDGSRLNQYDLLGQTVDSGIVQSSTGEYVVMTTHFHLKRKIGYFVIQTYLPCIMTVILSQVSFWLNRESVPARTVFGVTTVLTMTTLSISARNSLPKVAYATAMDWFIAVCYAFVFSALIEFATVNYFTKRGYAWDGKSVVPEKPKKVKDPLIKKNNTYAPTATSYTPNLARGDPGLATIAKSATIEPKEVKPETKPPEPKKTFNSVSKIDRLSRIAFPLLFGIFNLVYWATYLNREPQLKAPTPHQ
# UniProt Q92731, whole entry, looked up: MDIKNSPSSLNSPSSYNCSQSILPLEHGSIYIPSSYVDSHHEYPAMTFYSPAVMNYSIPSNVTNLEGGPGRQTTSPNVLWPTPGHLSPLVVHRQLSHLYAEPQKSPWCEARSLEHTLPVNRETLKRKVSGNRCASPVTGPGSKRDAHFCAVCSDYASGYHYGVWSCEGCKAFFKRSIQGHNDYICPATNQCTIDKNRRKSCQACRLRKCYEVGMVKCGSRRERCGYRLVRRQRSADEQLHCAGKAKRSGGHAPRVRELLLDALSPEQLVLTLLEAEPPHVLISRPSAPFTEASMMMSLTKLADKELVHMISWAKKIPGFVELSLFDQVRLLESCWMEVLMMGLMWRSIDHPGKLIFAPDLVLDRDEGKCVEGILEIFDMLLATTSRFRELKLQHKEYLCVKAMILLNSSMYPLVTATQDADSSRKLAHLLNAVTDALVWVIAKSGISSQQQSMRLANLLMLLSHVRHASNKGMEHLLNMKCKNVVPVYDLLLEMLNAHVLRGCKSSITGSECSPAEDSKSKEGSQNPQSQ
# UniProt P10827: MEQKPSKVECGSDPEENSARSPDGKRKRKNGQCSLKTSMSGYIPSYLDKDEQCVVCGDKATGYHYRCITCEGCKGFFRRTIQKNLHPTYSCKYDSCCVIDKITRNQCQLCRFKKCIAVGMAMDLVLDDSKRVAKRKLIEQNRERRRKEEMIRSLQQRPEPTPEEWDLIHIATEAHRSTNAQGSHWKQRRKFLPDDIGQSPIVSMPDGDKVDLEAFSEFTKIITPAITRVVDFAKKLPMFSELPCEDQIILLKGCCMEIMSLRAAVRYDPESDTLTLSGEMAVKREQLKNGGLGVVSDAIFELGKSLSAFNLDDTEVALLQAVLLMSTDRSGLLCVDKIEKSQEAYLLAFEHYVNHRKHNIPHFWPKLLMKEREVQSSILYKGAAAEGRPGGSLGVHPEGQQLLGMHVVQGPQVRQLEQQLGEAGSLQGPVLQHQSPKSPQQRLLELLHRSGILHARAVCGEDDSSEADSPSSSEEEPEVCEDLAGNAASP
# Key:
# [1] = biological target: Tyrosine-protein phosphatase non-receptor type 11 (Homo sapiens) (UniProt Q06124); test: NVS_ENZ_hPTPN11: NovaScreen (NVS) Enzymatic Assay for human Protein Tyrosine Phosphatase Non-receptor Type 11 (PTPN11) (AID 2283202)
# Summary of the method: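 Compounds first tested in duplicate at 25 uM; those reaching ~30% inhibition rerun in singleton concentration-response, top 50 uM. Phosphatase activity measured after 0.5 h by fluorescence with mobility-shift separation, relative to DMSO.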
# [2] = biological target: Tyrosine-protein phosphatase non-receptor type 13 (Homo sapiens) (UniProt Q12923); test: NVS_ENZ_hPTPN13: NovaScreen (NVS) Enzymatic Assay for human Protein Tyrosine Phosphatase Non-receptor Type 13 (PTPN13) (AID 2283205)
# Summary of the method: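 Screened first at a single 25 uM in duplicate; compounds passing the threshold (e.g. 30% inhibition) were rerun in concentration series, top 50 uM. Recombinant enzyme, fluorescent substrate, mobility-shift separation, 0.5 h read. Data fitted as inhibition relative to DMSO.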
# [3] = biological target: human Protein Tyrosine Phosphatase Receptor Type F (PTPRF), PTPRF (gene 5792) (UniProt P10586); test: NVS_ENZ_hPTPRF: NovaScreen (NVS) Enzymatic Assay for human Protein Tyrosine Phosphatase Receptor Type F (PTPRF) (AID 2283213)
# Summary of the method: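 Cell-free fluorescence enzyme assay with recombinant protein and substrate; product separated by electrophoretic mobility shift. Read 1 h after dosing, single 25 uM duplicate screen, then concentration-response up to 50 uM; loss of signal vs DMSO.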
# [4] = biological target: human Sirtuin 1 (SIRT1), SIRT1 (gene 23411) (UniProt Q96EB6); test: NVS_ENZ_hSIRT1: NovaScreen (NVS) Enzymatic Assay for human Sirtuin 1 (SIRT1) (AID 2283219)
# Summary of the method: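 Cell-free recombinant SIRT1 with a fluorescent substrate; substrate and product separated by electrophoretic mobility shift and read by fluorescence intensity, 1 h after dosing. Primary screen at 25 uM in duplicate; hits re-run in concentration-response up to 50 uM, relative to DMSO.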
# [5] = biological target: human Tropomyosin Receptor Kinase A (TRKA), NTRK1 (gene 4914) (UniProt P04629); test: NVS_ENZ_hTrkA: NovaScreen (NVS) Enzymatic Assay for human Tropomyosin Receptor Kinase A (TRKA) (AID 2283224)
# Summary of the method: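 Compounds were screened at 25 uM in duplicate, then concentration series to a 50 uM top for those meeting threshold (e.g. 30% inhibition). Enzyme was recombinant human TrkA, incubated 1 h. Product formation was quantified by fluorescence after mobility-shift separation.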
# [6] = biological target: human Tyrosine Protein Kinase Receptor Tie-2 (Tie2), TEK (gene 7010) (UniProt Q02763); test: NVS_ENZ_hTie2: NovaScreen (NVS) Enzymatic Assay for human Tyrosine Protein Kinase Receptor Tie-2 (Tie2) (AID 2283225)
# Summary of the method: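 Substrate and product were separated by mobility shift and detected by fluorescence after a 1-hour reaction with recombinant Tie2. Chemicals passing a 25 uM single-point screen were titrated to a maximum of 50 uM. Results were normalized to DMSO baseline.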
# [7] = biological target: human Vascular Endothelial Growth Factor Receptor 3 (VEGFR3), FLT4 (gene 2324) (UniProt P35916); test: NVS_ENZ_hVEGFR3: NovaScreen (NVS) Enzymatic Assay for human Vascular Endothelial Growth Factor Receptor 3 (VEGFR3) (AID 2283229)
# Summary of the method: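 Chemicals first run in duplicate at 25 uM, with actives re-tested in concentration series to a top of 50 uM. Recombinant VEGFR3 activity measured after 1 h via fluorescence with mobility-shift product separation; inhibition fitted relative to DMSO.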
# [8] = test system: guinea pig Atrionatriuretic Peptide Receptor A (ANPA), gene 100135578; test: NVS_GPCR_gANPA: NovaScreen (NVS) G Protein-Coupled Receptor Assay for guinea pig Atrionatriuretic Peptide Receptor A (ANPA) (AID 2283291)
# Summary of the method: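 Displacement of specific radioligand from guinea pig cerebellum membranes was read by scintillation after 1 h. A duplicate single-point screen at 25 uM was followed by a concentration series up to 50 uM, analysed relative to DMSO.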
# [9] = Tanguay_ZF_120hpf_YSE_legacy: (Legacy) Oregon State University Tanguay Lab 120 Hour Post-fertilization zebrafish Assay for Yolk Sac Edema (AID 2283634)
# Summary of the method: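 Presence or absence of yolk sac edema was recorded at 120 hpf in surviving larvae. These were wild-type Tropical 5D embryos, chorion removed at 4 hpf, held in static exposure at 28C from 6 hpf with 0.64% DMSO vehicle.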
# Caspase-1 (Homo sapiens) = Caspase-1 (Homo sapiens) (UniProt P29466); test: NVS_ENZ_hCASP1: NovaScreen (NVS) Enzymatic Assay for human Caspase 1 (CASP1) (AID 2283132)
# Summary of the method: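 Compounds were first tested in duplicate at 25 uM, with follow-up concentration series up to 50 uM. The bacterially expressed enzyme was read by fluorescence at 1 h post-dosing. Signal loss versus DMSO baseline indicates reduced enzyme activity.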
# [10] = biological target: rat Neurokinin-1 Receptor (NK1), Tacr1 (gene 24807) (UniProt P14600); test: NVS_GPCR_rNK1: NovaScreen (NVS) G Protein-Coupled Receptor Assay for rat Neurokinin-1 Receptor (NK1) (AID 2283309)
# Summary of the method: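 Competitive radioligand binding to NK1 in rat submaxillary membranes, 1 h incubation, filtration and scintillation read-out. Compounds first screened at 25 uM in duplicate, then concentration-response for actives; signal loss relative to DMSO.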
# [11] = biological target: bovine Gamma-Aminobutyric Acid Type A Receptor BDZ, alpha 1 site (GABARa1), GABRA1 (gene 780973) (UniProt P08219); test: NVS_LGIC_bGABARa1: NovaScreen (NVS) Ligand-Gated Ion Channel Assay for bovine Gamma-Aminobutyric Acid Type A Receptor BDZ, alpha 1 site (GABARa1) (AID 2283321)
# Summary of the method: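 Bovine cortex membrane preparation, benzodiazepine site on GABA-A alpha1; specific radioligand displacement read after 0.75 h by filtration and scintillation. Screen at 25 uM, then singleton titrations up to 50 uM; DMSO baseline.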
# [12] = LTEA_HepaRG_LDH_cytotoxicity: Cytotoxicity Assessment in the Life Technologies and Expression Analysis (LTEA) Assay (AID 2283563)
# Summary of the method: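 LDH release into culture medium read after 48 h chemical treatment of HepaRG cells. Duplicate wells, eight-point half-log series topping at 100 uM, 0.5% DMSO vehicle and baseline.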
# [13] = biological target: human Vasopressin 1A Receptor (V1A), AVPR1A (gene 552) (UniProt P37288); test: NVS_GPCR_hV1A: NovaScreen (NVS) G Protein-Coupled Receptor Assay for human Vasopressin 1A Receptor (V1A) (AID 2283284)
# Summary of the method: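 Single-concentration duplicate screen at 25 uM, with concentration-response follow-up (top 50 uM) for actives. The assay measured displacement of a radioligand from human platelet-derived receptor after 1.5 h, detected by filtration and scintillation counting.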
# [14] = biological target: Estrogen receptor beta (Homo sapiens) (UniProt Q92731); test: OT_ER_ERbERb_1440: Odyssey Thera (OT) 24-hour HEK293T Protein-Complementation Assay for Estrogen Receptor-beta/-beta Homodimer (AID 2283380);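 note: scored as signal increase over DMSO baseline for both agonists and antagonists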
# Summary of the method: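 HEK293T cells stably expressing ER beta LBD (aa 310-547) homodimer fragment-complementation reporter, dosed 24 h. Cells formaldehyde-fixed, Draq5-stained; gain in nuclear (agonist) or nuclear plus cytoplasmic (antagonist) fluorescence versus DMSO read by laser scanning cytometry.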
# [15] = biological target: sheep Cyclooxygenase-2 (Cox2), PTGS2 (gene 443460) (UniProt P79208); test: NVS_ENZ_oCOX2: NovaScreen (NVS) Enzymatic Assay for sheep Cyclooxygenase-2 (Cox2) (AID 2283231)
# Summary of the method: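 Enzyme from ovine placenta, cell-free; colorimetric absorbance read 0.66 hour after dosing, loss of signal vs DMSO. Screened in duplicate at 25 uM, then concentration-response up to 50 uM.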
# [16] = IUF_NPC4_neurite_area_120hr: Leibniz Research Institute for Environmental Medicine (IUF) 120-hour Neuronal Morphology Assay for Neurite Area (NPC4) (AID 2284305)
# Summary of the method: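 hNPC spheres on PDL/laminin, N2 medium, 37C/5% CO2; dosed day 0, half-medium refresh day 3; fixed 120 h; TUBB3/Hoechst ICC, high-content imaging; neurite area = mean pixels per neuron (nuclei excluded); DMSO baseline, max 0.1%.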
# THRA (gene 7067) = THRA (gene 7067) (UniProt P10827); test: TOX21_TRA_COA_Antagonist_Followup_ratio: Tox21 Thyroid Hormone Receptor alpha Antagonism through Coactivator Recruitment Follow-Up Assay, Ratio (AID 2283953)
# Summary of the method: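 We measured antagonism of T3-type coactivator recruitment using a TR-FRET ratio (emission 520 and 495 nm) between a Tb-labelled anti-GST antibody on TRα LBD (2.5 nM) and SRC-2 peptide (200 nM). Activity was scaled between DMSO and T3 wells.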
# [17] = TOX21_TRB_BLA_Antagonist_Followup_viability: Viability Assessment in the Tox21 Thyroid Hormone Receptor beta Antagonism Beta-lactamase (BLA) Follow-Up Assay (AID 2283961)
# Summary of the method: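 ATP-based CellTiter-Glo luminescence (30 min, room temperature) run in the same wells as the TRβ-bla readout. Cells: GeneBLAzer HEK293T expressing GAL4-TRβ LBD, exposed 18 h at 37C to compounds at 11 concentrations in triplicate, stripped-serum medium.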
# [18] = TOX21_PR_BLA_Followup_Antagonist_viability: Viability Assessment in the Tox21 HEK293 Progesterone Receptor (PR) Antagonism Beta-lactamase Follow-Up Assay (AID 2283936);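 note: cells exposed to compound with R5020 agonist for 16 h; hits lower the luminescence signal meaning cytotoxicity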
# Summary of the method: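 PR-UAS-bla HEK293T cells in medium with 2% charcoal-stripped FBS were treated with compounds plus R5020 for 16 hr at 37C. After the beta-lactamase read, CellTiter-Glo was added to the same wells and luminescence read after 30 min at room temperature.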
structure (smiles),measurement,setting,value
Clc1cccc(Cl)c1Cl,AC50,[1],inconclusive: 12.7 µM
same,AC50,[2],inconclusive: 0.0888 µM
same,outcome,[3],inactive
same,outcome,[4],inactive
same,AC50,[5],inconclusive: 6.7 µM
same,outcome,[6],inactive
same,AC50,[7],inconclusive: 25 µM
same,AC50,[8],inconclusive: 25 µM
same,outcome,[9],inactive
CCCCCCCCOC(=O)c1ccc(C(=O)OCCCCCCCC)c(C(=O)OCCCCCCCC)c1,AC50,Caspase-1 (Homo sapiens),inconclusive: 25.2 µM
Cc1ccc(N)c(N)c1,AC50,[10],inconclusive: 0.316 µM
same,outcome,[11],inactive
same,outcome,[12],inactive
CC(O)CCO (stereo not given),outcome,[13],inactive
same,outcome,[14],inactive
CNC(=N[N+](=O)[O-])NCC1CCOC1 (stereo not given),outcome,[15],inactive
same,outcome,[16],inactive
CN(C)c1ccc(C(=O)c2ccc(N(C)C)cc2)cc1,AC50,THRA (gene 7067),inconclusive: 7.6 µM
same,outcome,[17],inactive
CCOP(=S)(OCC)Oc1ccc(Cl)cc1Cl,AC50,[18],inconclusive: 46.1 µM

# Laid out differently: entries from further up
structure (smiles) | measurement | setting | value
Clc1cccc(Cl)c1Cl | AC50 | [1] | inconclusive: 12.7 µM
same | AC50 | [2] | inconclusive: 0.0888 µM
same | outcome | [3] | inactive
same | outcome | [4] | inactive
same | AC50 | [5] | inconclusive: 6.7 µM

# Source: PubChem BioAssay (EPA / NIEHS)
